Assay results published in publication PMC7186227.
No constants are given. Whether binding was seen depends on the method and setting. In cells and extracts the contact can be indirect. Some entries that bind do so weakly or less than the wild type.

Molecular target: MITA (mediator of IRF3 activation) (human (endogenous in HT1080)), Q86WV6
Assay: co-IP; HT1080 cells asynchronized or synchronized (mitotic), untreated or treated with cGAMP for 2 h; co-immunoprecipitation and immunoblotting; precipitating antibody not stated
Settings: remark: other sources report otherwise

B1: TBK1, Q9UHD2 1-729 (protein)
chain: MQSTSNHLWLLSDILGQGATANVFRGRHKKTGDLFAIKVFNNISFLRPVDVQMREFEVLKKLNHKNIVKLFAIEEETTTRHKVLIMEFCPCGSLYTVLEEPSNAYGLPESEFLIVLRDVVGGMNHLRENGIVHRDIKPGNIMRVIGEDGQSVYKLTDFGAARELEDDEQFVSLYGTEEYLHPDMYERAVLRKDHQKKYGATVDLWSIGVTFYHAATGSLPFRPFEGPRRNKEVMYKIITGKPSGAISGVQKAENGPIDWSGDMPVSCSLSRGLQVLLTPVLANILEADQEKCWGFDQFFAETSDILHRMVIHVFSLQQMTAHKIYIHSYNTATIFHELVYKQTKIISSNQELIYEGRRLVLEPGRLAQHFPKTTEENPIFVVSREPLNTIGLIYEKISLPKVHPRYDLDGDASMAKAITGVVCYACRIASTLLLYQELMRKGIRWLIELIKDDYNETVHKKTEVVITLDFCIRNIEKTVKVYEKLMKINLEAAELGEISDIHTKLLRLSSSQGTIETSLQDIDSRLSPGGSLADAWAHQEGTHPKDRNVEKLQVLLNCMTEIYYQFKKDKAERRLAYNEEQIHKFDKQKLYYHATKAMTHFTDECVKKYEAFLNKSEEWIRKMLHLRKQLLSLTNQCFDIEEEVSKYQEYTNELQETLPQKMFTASSGIKHTMTPIYPSSNTLVEMTLGMKKLKEEMEGVVKELAENNHILERFGSLTMDGGLRNVDCL
binding: binds
